Results are given in words; binding and its absence hold for the method and conditions named. Binding seen in cells or lysates may run through a third protein. Some entries that bind do so weakly or less than the wild type.
Molecular target: T1, ISL1 (as in the co-immunoprecipitation of Fig. 6f) (UniProt P61371)
T1 sequence: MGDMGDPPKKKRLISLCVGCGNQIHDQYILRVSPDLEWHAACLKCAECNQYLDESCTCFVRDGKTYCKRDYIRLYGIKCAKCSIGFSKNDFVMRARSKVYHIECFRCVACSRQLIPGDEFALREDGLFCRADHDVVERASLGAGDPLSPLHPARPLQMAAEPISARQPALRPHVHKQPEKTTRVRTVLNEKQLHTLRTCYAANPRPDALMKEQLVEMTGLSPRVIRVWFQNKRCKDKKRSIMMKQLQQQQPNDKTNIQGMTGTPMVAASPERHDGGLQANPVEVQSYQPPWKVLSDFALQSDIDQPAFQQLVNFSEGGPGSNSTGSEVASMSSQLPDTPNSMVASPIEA
Assay: co-IP; co-immunoprecipitation analysis, normal IgG as the negative control; cells and precipitating antibody not stated

B1: SETD7 (as in the co-immunoprecipitation of Fig. 6f) (protein, UniProt Q8WTS6 1-366)
chain: MDSDDEMVEEAVEGHLDDDGLPHGFCTVTYSSTDRFEGNFVHGEKNGRGKFFFFDGSTLEGYYVDDALQGQGVYTYEDGGVLQGTYVDGELNGPAQEYDTDGRLIFKGQYKDNIRHGVCWIYYPDGGSLVGEVNEDGEMTGEKIAYVYPDERTALYGKFIDGEMIEGKLATLMSTEEGRPHFELMPGNSVYHFDKSTSSCISTNALLPDPYESERVYVAESLISSAGEGLFSKVAVGPNTVMSFYNGVRITHQEVDSRDWALNGNTLSLDEETVIDVPEPYNHVSKYCASLGHKANHSFTPNCIYDMFVHPRFGPIKCIRTLRAVEADEELTVAYGYDHSPPGKSGPEAPEWYQVELKAFQATQQK
With B1 the binding was “binds”.
